Test results from US4232008A (Ortho Pharmaceutical Corporation, priority 1978, dated 1980).
HELM strings list residues between dots; [ac] is acetyl, [am] amide, other brackets name non-standard units.

Experiment: Boc solid-phase peptide synthesis; chloromethylated resin; dicyclohexyl carbodiimide
Conditions: whole synthesis, scale 2 mmol

## PEPTIDE1{A.K.S.Q}$$$$V2.0
  final purity (method not given): 94% pure
